The values that follow come from article PMC5862840.

These are yes or no findings as the source states them, for the method shown. Binding calls can cover weak binding; strength is not graded here.

In this test the target is uncarboxylated Ucma/GRP (ucUcma). Put plainly: ELISA; solid phase binding assay: ELISA plates coated with cUcma, ucUcma, BMP-2 and MGP (positive control), BMP-2 in the liquid phase, detected with an anti-BMP-2/4 antibody; both purified.

B1: recombinant BMP-2 (ligand, UniProt P12643 283-396)
chain: QAKHKQRKRLKSSCKRHPLYVDFSDVGWNDWIVAPPGYHAFYCHGECPFPLADHLNSTNHAIVQTLVNSVNSKIPKACCVPTELSAISMLYLDENEKVVLKNYQDMVVEGCGCR
Regarding B1, the binding entry is listed as “binds weakly”.
